Laboratory results reported in article PMC10593234.
The exact form of at least one protein or probe is not confirmed. A negative result means that nothing was seen under these conditions. At least one verdict was read from the data and is not stated in words by the source. For part of these data: Weaker means in comparison with the reference protein, sequence or condition of that experiment.

Key:
Test in all cases: EMSA
Details in all cases: 1.6 mM EDTA, 10.3 mM HEPES (pH not stated), 1 mM DTT, 1.3 mM spermidine HCl, 33.3 ng/uL poly dI/dC, 2.5% CHAPS, 4.3% glycerol, 0.1 ng probe in 12 uL, protein translated in vitro, label: 32P (dATP Klenow fill-in)
SHP2 + SEP3ΔC = test system: SHP2 + SEP3ΔC
AG + SEP3ΔC = test system: AG + SEP3ΔC
SHP1 + SEP3ΔC = test system: SHP1 + SEP3ΔC
[1] = heterodimer band abolished, 6 ug/uL BSA
[2] = similar to AtMUTE_i1, 6 ug/uL …
[3] = all shifted bands eliminated, 6 ug/uL BSA
[4] = near identical to AtMUTE_i1, 6 ug/uL BSA

“CTCGAGGATCATGCATGATAATCTTTCTAATATTGGATTTCCCAACTTACTATTTTTGGAAGAAAACAAAATGTTGTGGTCTAGA (double strand) [AtMUTE_i1]”: binds more weakly (SHP2 + SEP3ΔC; very weak band, 6 ug/uL BSA); binds (AG + SEP3ΔC; 6 ug/uL BSA); binds (SHP1 + SEP3ΔC; 6 ug/uL BSA).
“CTCGAGGATCATGCATGATAATCTTTCTAATATTGGATTTCCCAACTTATTTATGCTGTAAGAAAACAAAATGTTGTGGTCTAGA (double strand) [mCArG_2]”: no binding (SHP2 + SEP3ΔC; [1]); no binding (AG + SEP3ΔC; [1]); no binding (SHP1 + SEP3ΔC; [1]).
“CTCGAGGATCATGCATGATAATCTTTGACAGTTTTAATTTCCCAACTTACTATTTTTGGAAGAAAACAAAATGTTGTGGTCTAGA (double strand) [mCArG_1]”: binds more weakly (SHP2 + SEP3ΔC; [2]); binds (AG + SEP3ΔC; [2]); binds (SHP1 + SEP3ΔC; [2]).
“CTCGAGGATCATGCATGATAATCTTTGACAGTTTTAATTTCCCAACTTATTTATGCTGTAAGAAAACAAAATGTTGTGGTCTAGA (double strand) [mCArG_1+2]”: no binding (SHP2 + SEP3ΔC; [3]); no binding (AG + SEP3ΔC; [3]); no binding (SHP1 + SEP3ΔC; [3]).
“CTCGAGGATCATGCATGGTAATCTTTCTAATATCGGATAGTACTCCAAACTTACTAATCTTGGAAAAATATGTTGTGCCATCTTCTAGA (double strand) [EsMUTE_i1]”: binds more weakly (SHP2 + SEP3ΔC; [4]); binds (AG + SEP3ΔC; [4]); binds (SHP1 + SEP3ΔC; [4]).
“CTCGAGGATCATGCATGGTTACCCTTTAATACTGGATATCCCCGACTTACTAATTTCGGAAAAATATGTTATGATCATGTCTAGA (double strand) [CrMUTE_i1]”: binds more weakly (SHP2 + SEP3ΔC; [4]); binds (AG + SEP3ΔC; [4]); binds (SHP1 + SEP3ΔC; [4]).
